In patent US20240216465A1, “METHOD FOR TREATING REFRACTORY BRAIN TUMOR” (National Yang Ming Chiao Tung University, priority 2023, published 2024):
At least one structure is not confirmed: it was looked up by name or label, or the drawing left a doubt.

What was measured:
GBM8401 cells [1] = test: Cell wound closure assay; type: cell-based, human; conditions: TMZ 50 μM
GBM8401 cells [2] = test: Transwell assays for cell migration and invasion; type: cell-based, human; conditions: TMZ 50 μM, 24 h

SMILES: Cn1nnc2c(C(N)=O)ncn2c1=O [TMZ, Temozolomide]
- cell migration (wound-healing) (GBM8401 cells [1]): did not inhibit cell migration
- migration and invasion (Transwell) (GBM8401 cells [2]): slightly reduced migration and invasion
